The target in the assay is Breast Cancer 1 (BRCA1) protein (human (endogenous in CLL cells)) (UniProt P38398). Description: co-IP; CLL cells; IgG as the negative control; which protein was precipitated and which was blotted is not stated.

Sequences of proteins named here, by UniProt entry; tags and fusion partners are left off.
UniProt P38398: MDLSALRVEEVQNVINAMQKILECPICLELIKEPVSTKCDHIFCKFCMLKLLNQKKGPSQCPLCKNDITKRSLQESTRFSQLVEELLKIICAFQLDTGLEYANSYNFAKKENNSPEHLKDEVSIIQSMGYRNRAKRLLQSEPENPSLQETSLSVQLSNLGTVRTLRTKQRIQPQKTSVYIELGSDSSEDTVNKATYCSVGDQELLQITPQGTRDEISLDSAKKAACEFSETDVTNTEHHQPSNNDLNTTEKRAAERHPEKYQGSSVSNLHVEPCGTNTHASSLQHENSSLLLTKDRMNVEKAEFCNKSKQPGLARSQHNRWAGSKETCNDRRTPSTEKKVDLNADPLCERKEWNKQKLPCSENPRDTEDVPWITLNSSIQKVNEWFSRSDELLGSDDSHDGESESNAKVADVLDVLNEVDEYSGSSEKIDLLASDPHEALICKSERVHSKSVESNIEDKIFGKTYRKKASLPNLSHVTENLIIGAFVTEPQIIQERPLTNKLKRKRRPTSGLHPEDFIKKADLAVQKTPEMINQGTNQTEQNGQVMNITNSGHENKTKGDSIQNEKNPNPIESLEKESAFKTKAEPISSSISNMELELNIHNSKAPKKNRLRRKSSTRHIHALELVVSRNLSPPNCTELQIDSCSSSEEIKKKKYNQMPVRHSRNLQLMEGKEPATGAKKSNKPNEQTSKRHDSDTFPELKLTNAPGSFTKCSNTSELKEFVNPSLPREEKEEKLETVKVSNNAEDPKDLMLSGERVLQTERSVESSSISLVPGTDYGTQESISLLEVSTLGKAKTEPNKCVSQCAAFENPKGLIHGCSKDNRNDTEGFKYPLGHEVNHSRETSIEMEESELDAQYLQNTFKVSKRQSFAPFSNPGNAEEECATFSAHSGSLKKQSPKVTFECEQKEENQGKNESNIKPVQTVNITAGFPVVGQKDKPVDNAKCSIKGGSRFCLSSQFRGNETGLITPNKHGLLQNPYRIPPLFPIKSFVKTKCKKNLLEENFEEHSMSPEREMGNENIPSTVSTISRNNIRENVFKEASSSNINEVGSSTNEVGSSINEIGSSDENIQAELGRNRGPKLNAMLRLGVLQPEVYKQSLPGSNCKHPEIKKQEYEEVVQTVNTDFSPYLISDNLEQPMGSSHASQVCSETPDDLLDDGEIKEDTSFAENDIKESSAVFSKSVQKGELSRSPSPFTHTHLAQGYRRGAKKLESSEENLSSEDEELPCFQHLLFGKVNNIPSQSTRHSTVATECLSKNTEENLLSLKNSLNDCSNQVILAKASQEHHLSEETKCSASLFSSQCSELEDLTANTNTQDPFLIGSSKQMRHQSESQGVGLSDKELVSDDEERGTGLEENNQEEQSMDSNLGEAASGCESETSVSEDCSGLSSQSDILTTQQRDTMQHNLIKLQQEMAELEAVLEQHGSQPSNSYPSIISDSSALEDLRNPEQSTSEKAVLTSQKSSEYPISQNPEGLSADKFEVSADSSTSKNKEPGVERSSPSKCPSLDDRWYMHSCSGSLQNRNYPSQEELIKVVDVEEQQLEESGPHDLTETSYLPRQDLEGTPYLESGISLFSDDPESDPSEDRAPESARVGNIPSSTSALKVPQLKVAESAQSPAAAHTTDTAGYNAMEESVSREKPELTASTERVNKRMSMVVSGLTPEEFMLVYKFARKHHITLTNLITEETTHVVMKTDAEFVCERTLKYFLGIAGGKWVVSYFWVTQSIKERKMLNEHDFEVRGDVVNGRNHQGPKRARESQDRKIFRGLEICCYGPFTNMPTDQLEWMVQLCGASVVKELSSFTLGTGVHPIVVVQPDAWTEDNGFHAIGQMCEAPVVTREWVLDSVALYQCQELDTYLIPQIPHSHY

These are yes or no findings as the source states them, for the method shown. In cells and extracts the contact can be indirect. Some results given as binding are weak or reduced against the parent protein; the word gives no strength.

B1: Cytidine triphosphate synthase 2 (enzyme, UniProt Q9NRF8 1-586)
chain: MKYILVTGGVISGIGKGIIASSIGTILKSCGLRVTAIKIDPYINIDAGTFSPYEHGEVFVLNDGGEVDLDLGNYERFLDINLYKDNNITTGKIYQHVINKERRGDYLGKTVQVVPHITDAVQEWVMNQAKVPVDGNKEEPQICVIELGGTIGDIEGMPFVEAFRQFQFKAKRENFCNIHVSLVPQLSATGEQKTKPTQNSVRALRGLGLSPDLIVCRSSTPIEMAVKEKISMFCHVNPEQVICIHDVSSTYRVPVLLEEQSIVKYFKERLHLPIGDSASNLLFKWRNMADRYERLQKICSIALVGKYTKLRDCYASVFKALEHSALAINHKLNLMYIDSIDLEKITETEDPVKFHEAWQKLCKADGILVPGGFGIRGTLGKLQAISWARTKKIPFLGVCLGMQLAVIEFARNCLNLKDADSTEFRPNAPVPLVIDMPEHNPGNLGGTMRLGIRRTVFKTENSILRKLYGDVPFIEERHRHRFEVNPNLIKQFEQNDLSFVGQDVDGDRMEIIELANHPYFVGVQFHPEFSSRPMKPSPPYLGLLLAATGNLNAYLQQGCKLSSSDRYSDASDDSFSEPRIAELEIS
As for B1, the binding result is “binds”.

The record behind these values is paper PMC9835321.
